Data reported in patent US20120328521A1, “FORMULATIONS SUITABLE FOR PET IMAGING WITH HYDROPHOBIC PET AGENTS” (PIRAMAL IMAGING SA, priority 2009, published 2012).
At least one structure is not confirmed: it was looked up by name or label, or the drawing left a doubt.

Assay: Radioactivity loss / adsorption of compound 2 during preparation and sterile filtration (PTFE filter)
Assay type: physicochemical
[1] = invention formulation, Empty Vial containing Bulk
[2] = invention formulation, Empty syringe used for transferring formulation from bulk to Sterile filter
[3] = invention formulation, Final pharmaceutical formulation
[4] = invention formulation, Sterile filter
[5] = standard formulation, Empty Vial containing Bulk
[6] = standard formulation, Empty syringe used for transferring formulation from bulk to Sterile filter
[7] = standard formulation, Final pharmaceutical formulation
[8] = standard formulation, Sterile filter

## CNc1ccc(/C=C/c2ccc(OCCOCCOCC[18F])cc2)cc1 [Compound 2]
Invention formulation
  amount lost during the preparation phase: low amount
Invention formulation (6.5 mL water for injection, 2 mL PEG, 1.5 mL ethanol, 20 mg ascorbic acid, 25 mg sodium phosphate dibasic), Bulk, at EOS
  Radioactivity [MBq]: 1758 MBq
[1]
  Decay correction of radioactivity to EOS [MBq]: 18.27 MBq
  Percentage [%]: 1.03%
  Radioactivity [MBq]: 14.74 MBq
[2]
  Decay correction of radioactivity to EOS [MBq]: 6.64 MBq
  Percentage [%]: 0.38%
  Radioactivity [MBq]: 4.969 MBq
[3]
  Decay correction of radioactivity to EOS [MBq]: 1758 MBq
  Radioactivity [MBq]: 1298 MBq
Invention formulation, Final pharmaceutical formulation, share of bulk radioactivity
  Percentage [%]: 100.00%
[4]
  Decay correction of radioactivity to EOS [MBq]: 39.92 MBq
  Percentage [%]: 2.27%
  Radioactivity [MBq]: 29.68 MBq
Standard formulation
  amount lost during the preparation phase: high amount
Standard formulation (8.5 mL isotonic saline, 1.5 mL ethanol, 50 μl sodium phosphate solution), Bulk, at EOS
  Radioactivity [MBq]: 1584 MBq
[5]
  Decay correction of radioactivity to EOS [MBq]: 20.54 MBq
  Percentage [%]: 1.30%
  Radioactivity [MBq]: 16.07 MBq
[6]
  Decay correction of radioactivity to EOS [MBq]: 25.08 MBq
  Percentage [%]: 1.58%
  Radioactivity [MBq]: 19.48 MBq
[7]
  Decay correction of radioactivity to EOS [MBq]: 1176 MBq
  Radioactivity [MBq]: 899.8 MBq
Standard formulation, Final pharmaceutical formulation, share of bulk radioactivity
  Percentage [%]: 74.24%
[8]
  Decay correction of radioactivity to EOS [MBq]: 382.8 MBq
  Percentage [%]: 24.17%
  Radioactivity [MBq]: 295.8 MBq
